Test results taken from paper PMC4120859.
These are yes or no findings as the source states them, for the method shown. For some of these results: Binding calls can cover weak binding; strength is not graded here. For some of these results: Where a sequence is shown, tags or fusion partners need not be part of it. For some of these results: Binding seen in cells or lysates may run through a third protein. Values belong to the binder of their own block, whether it stands above or below them.

Experiments:
[1] = target: GST-tagged NdrC-RBD (amino acid residues 1-299 of NdrC) (Dictyostelium discoideum); test: pull-down; 400 μg purified His-tagged Ras protein with 100 μg GST-RBD on glutathione sepharose beads, binding buffer, 4°C overnight; Western blot with anti-His tag antibody; both purified
[2] = target: GST-tagged NdrC-RBD (amino acid residues 1-299 of NdrC) (Dictyostelium discoideum); test: pull-down; 100 μg GST-RBD and glutathione sepharose beads with 400 μg Dictyostelium protein lysate (wild-type AX2 or ndrC-null cells), 4°C, 1 hour; Western blot with polyclonal antibodies against RasB, RasG, RasC or Rap1; only the target purified
[3] = target: GST-tagged NdrC-RBD (amino acid residues 1-299 of NdrC) (Dictyostelium discoideum); test: condition: 400 μg of His-tagged Ras protein with 100 μg of GST-RBD; pull-down; 400 μg purified His-tagged Ras protein with 100 μg GST-RBD on glutathione sepharose beads, binding buffer, 4°C overnight; Western blot with anti-His tag antibody; both purified
[4] = target: GST-tagged NdrC-RBD (amino acid residues 1-299 of NdrC) (Dictyostelium discoideum); test: pull-down; GST-NdrC-RBD with wild-type AX2 cells expressing GFP-tagged Ras proteins; Western blot with anti-GFP antibodies; only the target purified

binding [1]: binds
B1: 6xHis-tagged constitutively activated RasC (G13T) (protein, UniProt P32253 1-189)
chain: MSKLLKLVIVGDTGVGKSALTIQLTQNQFIAEYDPTIENSYRKQVNIDEEVYMLDILDTAGQEEYSAMRDQYIRSGRGFLIVYSIISRASFEAVTTFREQILRVKDLSTYPIVIIGNKADLPDKDRKVPPMEGKELAKSFGAPFLETSAKSRVNVEEAFFTLVREIKRWNQNPQNEEMLPPKKRGCIIL

binding [2]: binds
B2: RasC, endogenous in Dictyostelium cell lysate (protein, UniProt P32253 1-189)
chain: MSKLLKLVIVGDGGVGKSALTIQLTQNQFIAEYDPTIENSYRKQVNIDEEVYMLDILDTAGQEEYSAMRDQYIRSGRGFLIVYSIISRASFEAVTTFREQILRVKDLSTYPIVIIGNKADLPDKDRKVPPMEGKELAKSFGAPFLETSAKSRVNVEEAFFTLVREIKRWNQNPQNEEMLPPKKRGCIIL

binding [3]: no binding
B3: 6xHis-tagged wild-type RasS (protein, UniProt P32254 1-194)
chain: MFNFKLVLVGPGGVGKSCLTIQFIAQKFVDEYDPTLEDSYRKQTTVDGEECLLDIYDTAGQEDFSAVRDQYMRTGEGFLCVYSITYLQSFKEIHRLHNHLLKVKDLDSVPFVLVGNKCDLNEYREVSTAEGEELAKKLNCKFLETSAKERINVSESFYELVREVKKARQSNQHSNSQEQNTDQPIKKKKSCNLL

binding [3]: no binding
B4: 6xHis-tagged constitutively activated RasS (G12T) (protein, UniProt P32254 1-194)
chain: MFNFKLVLVGPTGVGKSCLTIQFIAQKFVDEYDPTLEDSYRKQTTVDGEECLLDIYDTAGQEDFSAVRDQYMRTGEGFLCVYSITYLQSFKEIHRLHNHLLKVKDLDSVPFVLVGNKCDLNEYREVSTAEGEELAKKLNCKFLETSAKERINVSESFYELVREVKKARQSNQHSNSQEQNTDQPIKKKKSCNLL

binding [2]: binds
B5: RasB, endogenous in Dictyostelium cell lysate (protein, UniProt P32252 1-197)
chain: MSVSNEYKLVVMGGGGVGKSALTIQFIQNHFIEEYDPTIEDSYRRQCQVDEDTCLLDILDTAGQDDYSAMRDQYMRTGQGFLCVYDVTSRTSFEEINVVREQIIRVKDNDKVPIVLVGNKCDLENLREVTEGEGSELAKSFSVPFLETSAKKRLNVDECFFEVVREIKKSLKEPGRSKKDKKGGILKKFKGGDCLIL

binding [1]: binds
B6: 6xHis-tagged constitutively activated RasB (G15T) (protein, UniProt P32252 1-197)
chain: MSVSNEYKLVVMGGTGVGKSALTIQFIQNHFIEEYDPTIEDSYRRQCQVDEDTCLLDILDTAGQDDYSAMRDQYMRTGQGFLCVYDVTSRTSFEEINVVREQIIRVKDNDKVPIVLVGNKCDLENLREVTEGEGSELAKSFSVPFLETSAKKRLNVDECFFEVVREIKKSLKEPGRSKKDKKGGILKKFKGGDCLIL

binding [4]: binds
B7: GFP-tagged RasB (protein, UniProt P32252 1-197)
chain: MSVSNEYKLVVMGGGGVGKSALTIQFIQNHFIEEYDPTIEDSYRRQCQVDEDTCLLDILDTAGQDDYSAMRDQYMRTGQGFLCVYDVTSRTSFEEINVVREQIIRVKDNDKVPIVLVGNKCDLENLREVTEGEGSELAKSFSVPFLETSAKKRLNVDECFFEVVREIKKSLKEPGRSKKDKKGGILKKFKGGDCLIL
